Laboratory results taken from patent US11427526B2, “Method of preparing hydroxytyrosol cinnamic acid ester with antioxidant and antibacterial activities” (XI'AN KANGYUANSHENG BIOMEDICAL TECHNOLOGY CO., LTD., priority 2020, dated 2022).
At least one compound was matched to its structure with a doubt left.

Assay: DPPH radical scavenging activity assay
Conditions: n = 3
Method: The antioxidant activity of the hydroxytyrosol cinnamic acid ester was measured by a DPPH radical scavenging activity assay. 2,2-Diphenyl-1-picryl hydrazyl (DPPH) is an organic compound composed of a stable organic radical. In the DPPH molecule, due to the presence of multiple electron-withdrawing —NO2 and large π bonds of the benzene ring, nitrogen free radical is stabilized. Its methanol solution is purple and has a maximum absorption peak at 517 nm. After the addition of an antioxidant, DPPH captures an electron to be paired with the free electron, and the purple fades and turns into a yellow substance. The absorption at 517 nm disappears, and the degree of fading is quantitatively related to the number of electrons it captures. Based on this principle, a spectrophotometer is used to detect the change of the absorbance of the DPPH radical and the sample solution, and the ability of the sample to provide hydrogen atoms and scavenge free radicals can be measured. measuring exact amount of 2,2-diphenyl-1-picryl hydrazyl (DPPH) and dissolving in toluene to prepare a 0.2 mmoL/L DPPH solution, stored at 0° C. in dark. Vc (positive control), hydroxytyrosol cinnamic acid ester (sample), hydroxytyrosol (control) and cinnamic acid (control). The sample solution was subjected to gradient dilution with toluene, and three sets of controls were separately dissolved in a test tube with a certain amount of toluene to prepare the same concentration gradient as the sample. Sample liquid absorbance measurement: Take 2 mL of sample solution (Table 1 Vc, B, C), add 2 mL of DPPH solution with concentration of 2×10^−4 moL/L, mix and react in the dark at room temperature for 30 min, adjust to zero with toluene, and measure at 517 nm. The absorbance Ai was simultaneously measured for the absorbance Aj of 2 mL of toluene mixed with 2 mL of the sample solution and the absorbance Ao of 2 mL of DPPH solution mixed with 2 mL of toluene (The experimental results are shown in Table 2). Clearance calculation: Clearance Rate (%)=[1−(Ai−Aj)/Ao]*100%

With `OCCc1ccc(O)c(O)c1` [Hydroxytyrosol] the DPPH clearance rate (1.76 ppm) was 7.42%, the DPPH clearance rate (8.80 ppm) was 8.16% and the DPPH clearance rate (21.12 ppm) was 18.43%. It also gave a DPPH clearance rate (42.24 ppm) of 25.10%, a DPPH clearance rate (79.20 ppm) of 38.99% and a DPPH clearance rate (112.64 ppm) of 43.87%. For the same molecule, the DPPH clearance rate (281.60 ppm) was 61.25%, the DPPH clearance rate (492.80 ppm) was 65.88% and the DPPH clearance rate (792.00 ppm) was 75.03%. For the same molecule, the DPPH clearance rate (915.20 ppm) was 76.76%.
